PubChem BioAssay AID1347426 (Functional Genomics Laboratory (NCATS/FGL), 2020)
The whole screen tested about 31,000 sequences, of which about 1,400 (4.5%) were called active.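 How the source made its calls: active means median seed-adjusted z-score above 1 or below -1; inactive means the rest.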 Some of the results follow.

Assay: Novel Modifiers of Survival Motor Neuron (SMN) Protein: Gene Identification via Genome-wide siRNA Screen
Conditions: HEK293T SMN2-luciferase reporter, siRNA knockdown, 72 h; actives lie on both sides
Source text: Spinal muscular atrophy (SMA) is the most common neuromuscular autosomal recessive disorder and one of the leading genetic causes of infant death. SMA results from mutations inducing loss of function or deletion in the survival of motor neuron-1 gene (SMN1), leading to deficiency of the survival motor neuron (SMN) protein. Although a second nearly identical gene, SMN2, is retained in humans, its expression primarily produces an aberrantly spliced isoform that is largely unstable and quickly degraded. We performed a genome-wide RNAi screen using a cell-based reporter assay to identify genes and pathways that modulate SMN protein stability. The screen identified over 200 genes that led to the greatest increase or decrease in luciferase expression.
Using HEK293T cells stably expressing a luciferase reporter that combines the promoter and splicing based cassettes in tandem with the major portion of the native SMN2 cDNA with luciferase, we performed a genome-wide RNAi screen to identify modulators of SMN protein levels. Luciferase is expressed when full-length SMN protein is generated with luminescence signal proportional to SMN protein levels. Our luciferase-based reporter assay was used to screen Ambion Silencer Select Human Druggable Genome siRNA library (10418 genes, 3 unique siRNAs per gene) using lipid-based reverse transfection.
Briefly, 1 pmol of each siRNA was spotted to a well of a 384-well plate (Corning, Corning, NY) and 20 microL of serum-free DMEM containing […] of Lipofectamine RNAiMax (Life Technologies, Carlsbad, CA) was then added to each well. Transfected cells were maintained at 37 degrees C in 5% CO2 for 72 hours, 20 microL of ONE-Glo Reagent (Promega) was added to wells for luciferase quantification. Raw luminescence reads were normalized to Ambion(R) Silencer(R) Negative Control #2 siRNA, then log10 transformed. A robust statistical measure of median absolute deviation (MAD) to standardize siRNA activities from each screen. Common Seed Analysis was used to help prioritize clean hits as opposed to those appearing to arise from seed based off-target effects. Candidate modulators were defined as the genes having a MAD score greater than 1.0 or less than -1.0.

| Sequence | median seed-adjusted z-score |
| --- | --- |
| GGCUCUUACCGCUAUCCUATT against SLC6A5 | inactive: -0.204 |
| GGAUUUCCAGGUGCUCGAATT against FARP2 | inactive: -0.0358 |
| ACUUCAAUGUUGCAUUGCATT against NECAP2 | inactive: -0.539 |
| GCCUAAUGAUGCUCUAGUATT against TTC6 | inactive: 0.234 |
| CGAUCCUCUUGGUUUACCATT against NAALAD2 | inactive: -0.00068 |
| GGACAGUGAUGGAAGCAUUTT against ADAM7 | inactive: -0.0638 |
| AGCAGGAUAUGAUCCGGAATT against SEC14L4 | inactive: -0.714 |
| GGGCAUACAUGCAUCAACATT against FBLN1 | inactive: 0.518 |
| GGACUCACCAAAUAGAUCATT against ZNF818 | inactive: -0.223 |
| CCAGCUAAGAGACAAUGUATT against GABPB2 | inactive: 0.441 |
| GAUCUUCGCUUUAACAGAATT against PXDN | inactive: 0.771 |
| GCACAGUUGGGAUCGAUUUTT against RAB3C | inactive: 0.043 |
| GAAGCUGCCUUGGACAUCATT against B4GALNT1 | inactive: 0.0265 |
| CGUGGAAGAUUUUCACAGATT against ZNF174 | inactive: 0.035 |
| AAACAAGAGUCCCUCUAAATT against HMGA2 | inactive: -0.327 |
| GUGGAUAAGCUGAACAUUATT against CTNNA1 | inactive: -0.0588 |
| GCUAUAAGGUGGACCACGATT against ARHGAP27 | inactive: -0.777 |
| GUUUCGAGAUUGUUGCUAUTT against CCNL1 | active: -1.26 |
| GUCUGAUAAUGUUACUCGATT against GPR115 | inactive: -0.189 |
| GCACAUUAAAGUUACAAAUTT against NDUFB2 | inactive: 0.063 |
| CAACUUCUAAGGGAAUUCATT against HPGD | inactive: -0.145 |
| GGUCCAAGCUGAUUACCCUTT against UNC13A | active: -2.1 |

Reformatted as tab-separated lines: entries from further up.
Sequence	median seed-adjusted z-score
GCUAUAAGGUGGACCACGATT against ARHGAP27	inactive: -0.777
GUUUCGAGAUUGUUGCUAUTT against CCNL1	active: -1.26

Following part

| Sequence | median seed-adjusted z-score |
| --- | --- |
| GAUCGAUUCAUACCAUAUATT against MCM8 | inactive: 0.279 |
| GAAGGAAGCGAGACUCAUATT against LRPAP1 | inactive: -0.0616 |
| UGACAUACAUGGAAUAGCATT against KLK6 | inactive: 0.176 |
| GUCUUCGAUUCUUAGCUUATT against DCC | inactive: 0.303 |
| CAUGCGUUCUCUGAAGUCATT against PTCH2 | inactive: -0.191 |
| CAAGUUCUCUUAUCCACCATT against PPP1R15A | inactive: 0.539 |
| AGGCAUUCCGAGUCUUUGATT against CALM1 | inactive: 0.355 |
| AGCUACUACUAUCCCAUGATT against LENG8 | inactive: -0.00539 |
| GAACCACUGCAUCACCUGUTT against SCUBE1 | inactive: 0.673 |
| CGACAAGUUUUGUGAGACUTT against LRAT | inactive: 0.345 |
| GCUGUUAAGUAUGCCCUUATT against AKR1A1 | inactive: -0.255 |
| GUUCUAUGGUGAUGACAUATT against C2 | inactive: -0.0549 |
| GCCUCAAGCCUUCGCAGAATT against DOC2A | inactive: 0.299 |
| CUAUGAACAAGGUUGCAGATT against NDUFV2 | inactive: -0.794 |
| AGGAGGCUUUCAACAUGAUTT against MYL9 | inactive: 0.571 |
| GGAGAUAUCUGUGCCUGUATT against AP1M2 | inactive: 0.0641 |
| GGAACAUUGACGGCGAAUATT against ANGPTL2 | inactive: 0.141 |
| GCUCCUGAGUGAAAACGGATT against ALAD | inactive: 0.0952 |
| GCAUCCUGGUUUUAGACGATT against ABCC3 | inactive: -0.549 |
| GGAUUAUGAGUACCGAGAATT against MAP3K14 | inactive: -0.0609 |
| CACCAGCACUUUAUACACUTT against RHOC | inactive: -0.579 |
| GCUCCAACUUCAGCACGCATT against ZNF500 | inactive: 0 |

A few values from above.
GGAUUAUGAGUACCGAGAATT against MAP3K14 | median seed-adjusted z-score: inactive: -0.0609
CAAGUUCUCUUAUCCACCATT against PPP1R15A | median seed-adjusted z-score: inactive: 0.539
GAACCACUGCAUCACCUGUTT against SCUBE1 | median seed-adjusted z-score: inactive: 0.673

Remaining list, next part:

| Sequence | median seed-adjusted z-score |
| --- | --- |
| AGAAGGUUGUUUUCGAGCATT against TPI1 | inactive: 0.447 |
| CGAGUUAAAUUGACAUUAATT against PTPN12 | inactive: -0.507 |
| CCUGAAAUCAUAGAGUUAATT against KCNMA1 | inactive: 0 |
| GCAGAAUACAAGAGCUUGATT against EID2 | active: -1.04 |
| UGGAUCAUGUCAUUCAAUUTT against COX8A | inactive: -0.0749 |
| ACCGAGAAAUGCUAGAAAATT against PPM1L | inactive: 0.4 |
| GAAACUUGAUUGAUCUUUATT against MITF | inactive: -0.249 |
| GGAUAUCCGCCUUCACAGATT against BAG4 | inactive: 0.111 |
| GAAUGUAAACUAUGCGGUATT against ZNF14 | inactive: -0.0802 |
| AGCUGGUCGCUAUCUAUAATT against SYN2 | inactive: -0.375 |
| AUCCCAUGCUCUUCCUGUATT against GPR77 | inactive: 0 |
| GGCGACCAUUUAUAGGAUUTT against AASDH | inactive: 0.156 |
| GAACGAAACAGAAAGGUGATT against ABHD1 | inactive: 0.336 |
| CAAUGAUGGAGGCUAUUAUTT against EMILIN1 | inactive: 0 |
| AAGACAAGCUAAAAAUGAUTT against YWHAE | active: 1.38 |
| GAACAACUGCGGAAUCAGATT against GNB4 | inactive: 0.015 |
| GCAUAUCUGGAGUCAGCGATT against AP1G2 | inactive: 0.0657 |
| GAGCAUCGAUGGCGAGAAUTT against PDLIM7 | inactive: 0.548 |
| GAAUUAUGCGUAACCAUCUTT against MS4A3 | inactive: 0.189 |
| GACAACUAGUCAUAACAAATT against ZNF519 | inactive: 0.0162 |
| GCAUGCGAAGAAUCCGAAATT against MYO16 | inactive: -0.072 |
| GAGCUGAUGUAGUCAGUAATT against PPP1CB | inactive: -0.81 |

| Sequence | median seed-adjusted z-score |
| --- | --- |
| GAAGAUGACUGGACUCAAATT against CTSK | inactive: 0.0972 |
| CCGCUAAAGUGGAAGCUAUTT against JARID1A | inactive: 0.189 |
| GCCUUUCACAGGUUGAUAUTT against TFIP11 | inactive: -0.0562 |
| CAGAGAAGCUAGACCUGAATT against JARID1C | inactive: 0.372 |
| ACGACACCAUGAUUGAGAATT against LHX6 | inactive: -0.717 |
| GCAUCAGUGUGGUUAGCUATT against FLOT1 | inactive: -0.685 |
| GCAGUGAAAUAUCCAUGAUTT against BRD8 | inactive: -0.133 |
| GGAGGACAAGGUUUCCUUATT against FCRL1 | inactive: -0.873 |
| GCAAAGUCCUGACCUUCGATT against SMC1A | inactive: -0.362 |
| UCACUUAGCGCUUUCAGGATT against ZNF322A | inactive: 0.0884 |
| GCACCAGCCUUAACCCUCATT against RAB1B | active: 1.55 |
| CCGAUAGAAUAAGUGCUAATT against RBM45 | inactive: -0.234 |
| CAACAGCGAUUUUAGGAUATT against ARNTL2 | inactive: 0.102 |
| CCAUGAUGGUGACCCAGCATT against MYBPH | inactive: 0.0513 |
| GGAGUGGAAGCGUUUGGAATT against ZNF3 | inactive: -0.149 |
| CGUGGGUCACUGUUAAGAATT against CPXM2 | inactive: 0 |
| CGAUGGUACUGGAGAAGGATT against GLUL | inactive: -0.307 |
| CAUCCGAUAGAAUCCAGUUTT against KPNB1 | inactive: 0.165 |
| CAUGAUAACUGGGAUUUAATT against PON3 | inactive: -0.0823 |
| GUAUGGAGAUCUCUACGGATT against RYR3 | inactive: 0 |
| GCAUUGUUUUGAUGAGUAUTT against CDC7 | inactive: -0.236 |
| GCAUUACAGGCGUGCAGCATT against LBX2 | inactive: 0.538 |

| Sequence | median seed-adjusted z-score |
| --- | --- |
| AGAGGUGGGCCGAACCAUATT against CST2 | inactive: -0.411 |
| GCAAUGAAGAGGACUAUGATT against ARIH2 | inactive: 0.0449 |
| GGAACUCUUUGCUGAAUUUTT against THOC4 | active: -1.54 |
| AGACCACCGUUAAUCCAGATT against NOVA1 | inactive: -0.486 |
| GGAGGCACCUCUCAAGAUATT against THRAP3 | inactive: -0.852 |
| CAAUGAUCCAGAAGAUAGATT against MGAT4C | inactive: 0.187 |
| GGGUUCAUCUGAUUGACCATT against SLC6A14 | inactive: 0 |
| GGGUCAACAGCAACUCGAATT against RAI1 | inactive: 0.113 |
| GGUCACUAGUGGAUUAUGATT against SNX6 | inactive: 0 |
| CCCAUGCUGCGUUCACCUATT against RBPMS2 | inactive: -0.485 |
| CCACCGUCUUCAAUGCCCATT against RNF5 | inactive: -0.0342 |
| GGAUUAGGGAUGCAGUUAATT against AVEN | inactive: 0.184 |
| AGAUCUGCAUGAAACAACATT against VPS16 | inactive: 0.306 |
| GGAGAGCCUUUAGCAGUAATT against ZNF132 | inactive: -0.484 |
| GUAAUCUACUGGGACGGAATT against TP53 | inactive: 0.214 |
| CUAAGAGACUAAAUGCAAATT against SUCLG2 | inactive: -0.619 |
| CAAGAGCUUCCAAAACUUATT against ZNF75D | inactive: 0 |
| GCCUGAAAAGGACAGCUCATT against FAM53B | inactive: -0.00535 |
| GCUAGUUGAUCUCACGGUATT against TNIK | inactive: 0.154 |
| GGUUAUCACUGCGUUCCUATT against PHTF1 | inactive: 0.0129 |
